{"source": "paper doi:10.1101/477745", "key": {"[1]": {"target": "T1, Era fused to SB (small bit of luciferase) (S. aureus) (UniProt Q2FGF6)", "T1 sequence": "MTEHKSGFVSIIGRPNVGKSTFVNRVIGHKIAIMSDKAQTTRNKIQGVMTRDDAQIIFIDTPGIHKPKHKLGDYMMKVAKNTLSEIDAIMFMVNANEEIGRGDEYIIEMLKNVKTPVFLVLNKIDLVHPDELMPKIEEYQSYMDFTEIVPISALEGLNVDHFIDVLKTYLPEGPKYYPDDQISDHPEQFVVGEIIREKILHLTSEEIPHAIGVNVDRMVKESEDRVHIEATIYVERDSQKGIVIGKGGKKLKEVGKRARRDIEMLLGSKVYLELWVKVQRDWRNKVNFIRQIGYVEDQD", "test": "split reporter"}, "[2]": {"target": "T2, GST-Era (S. aureus) (UniProt Q2FGF6)", "T2 sequence": "T1 sequence", "test": "pull-down"}, "[3]": {"target": "T3, Era-T25 (S. aureus) (UniProt Q2FGF6)", "T3 sequence": "T1 sequence", "test": "two-hybrid"}}, "note": "No constants are given. Whether binding was seen depends on the method and setting. For some of these results: A result given as binding can be weak or reduced; the word gives no strength. For some of these results: Sequences can lack the tags named with a protein. For some of these results: Binding seen in cells or lysates may run through a third protein."}
{"substance": "DgkA (split luciferase fusion) (from UniProt A0A0H2XF69)", "values": [{"measurement": "binding", "setting": "[1]", "value": "no binding"}]}
{"substance": "His-tagged YbeY (S. aureus)", "values": [{"measurement": "binding", "setting": "[2]", "value": "binds"}]}
{"substance": "RecO (bacterial two-hybrid fusion) (S. aureus)", "values": [{"measurement": "binding", "setting": "[3]", "value": "no binding"}]}
{"substance": "RecO (split luciferase fusion) (S. aureus)", "values": [{"measurement": "binding", "setting": "[1]", "value": "no binding"}]}
{"substance": "T18-YbeY (S. aureus)", "values": [{"measurement": "binding", "setting": "[3]", "value": "binds"}]}
{"substance": "T18-YbeZ (S. aureus)", "values": [{"measurement": "binding", "setting": "[3]", "value": "binds"}]}
{"substance": "YbeZ (split luciferase fusion) (S. aureus)", "values": [{"measurement": "binding", "setting": "[1]", "value": "no binding"}]}
